# Laboratory results taken from the supplement of paper PMC10849652.
# Chains of the proteins cited; added tags and fusions are not shown. Lines headed by an entry give the natural chain unless they say otherwise; changes in a name come on top.
# UniProt Q9NRB3: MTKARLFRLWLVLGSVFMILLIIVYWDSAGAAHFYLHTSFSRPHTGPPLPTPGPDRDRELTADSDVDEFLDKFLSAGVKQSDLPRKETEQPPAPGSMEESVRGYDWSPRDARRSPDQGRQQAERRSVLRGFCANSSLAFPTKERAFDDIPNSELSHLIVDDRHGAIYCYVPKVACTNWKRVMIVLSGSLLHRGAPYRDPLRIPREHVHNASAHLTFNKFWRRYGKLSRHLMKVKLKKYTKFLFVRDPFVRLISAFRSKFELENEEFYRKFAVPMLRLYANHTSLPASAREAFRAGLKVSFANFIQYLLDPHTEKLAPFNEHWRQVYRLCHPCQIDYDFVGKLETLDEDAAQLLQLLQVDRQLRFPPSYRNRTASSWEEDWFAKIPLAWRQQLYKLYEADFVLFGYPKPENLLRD
# UniProt P56749: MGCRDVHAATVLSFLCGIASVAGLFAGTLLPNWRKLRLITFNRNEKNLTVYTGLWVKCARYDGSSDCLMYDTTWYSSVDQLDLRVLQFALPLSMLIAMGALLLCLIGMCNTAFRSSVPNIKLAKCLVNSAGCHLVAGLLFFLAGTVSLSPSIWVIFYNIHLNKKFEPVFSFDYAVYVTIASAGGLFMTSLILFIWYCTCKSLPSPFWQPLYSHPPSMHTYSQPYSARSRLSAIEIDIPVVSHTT
# UniProt O15111: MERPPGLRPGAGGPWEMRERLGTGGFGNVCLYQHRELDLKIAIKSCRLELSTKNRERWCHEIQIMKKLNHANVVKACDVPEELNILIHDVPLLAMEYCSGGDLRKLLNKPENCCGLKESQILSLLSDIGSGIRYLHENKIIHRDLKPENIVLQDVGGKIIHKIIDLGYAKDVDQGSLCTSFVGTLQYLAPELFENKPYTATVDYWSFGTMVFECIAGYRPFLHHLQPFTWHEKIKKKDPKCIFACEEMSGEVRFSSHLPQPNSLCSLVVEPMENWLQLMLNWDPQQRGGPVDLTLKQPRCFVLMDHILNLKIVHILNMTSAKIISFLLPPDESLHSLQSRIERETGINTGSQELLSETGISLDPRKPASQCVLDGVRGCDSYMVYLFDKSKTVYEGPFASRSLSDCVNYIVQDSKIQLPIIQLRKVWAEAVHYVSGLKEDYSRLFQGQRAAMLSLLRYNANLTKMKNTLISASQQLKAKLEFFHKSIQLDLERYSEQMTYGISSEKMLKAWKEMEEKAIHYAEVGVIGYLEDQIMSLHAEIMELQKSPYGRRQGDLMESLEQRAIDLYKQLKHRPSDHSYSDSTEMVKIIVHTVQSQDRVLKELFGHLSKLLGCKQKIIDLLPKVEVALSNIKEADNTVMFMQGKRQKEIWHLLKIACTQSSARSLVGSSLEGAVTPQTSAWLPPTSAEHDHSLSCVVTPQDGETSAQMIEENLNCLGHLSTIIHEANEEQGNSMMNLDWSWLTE
# UniProt Q8N3K9: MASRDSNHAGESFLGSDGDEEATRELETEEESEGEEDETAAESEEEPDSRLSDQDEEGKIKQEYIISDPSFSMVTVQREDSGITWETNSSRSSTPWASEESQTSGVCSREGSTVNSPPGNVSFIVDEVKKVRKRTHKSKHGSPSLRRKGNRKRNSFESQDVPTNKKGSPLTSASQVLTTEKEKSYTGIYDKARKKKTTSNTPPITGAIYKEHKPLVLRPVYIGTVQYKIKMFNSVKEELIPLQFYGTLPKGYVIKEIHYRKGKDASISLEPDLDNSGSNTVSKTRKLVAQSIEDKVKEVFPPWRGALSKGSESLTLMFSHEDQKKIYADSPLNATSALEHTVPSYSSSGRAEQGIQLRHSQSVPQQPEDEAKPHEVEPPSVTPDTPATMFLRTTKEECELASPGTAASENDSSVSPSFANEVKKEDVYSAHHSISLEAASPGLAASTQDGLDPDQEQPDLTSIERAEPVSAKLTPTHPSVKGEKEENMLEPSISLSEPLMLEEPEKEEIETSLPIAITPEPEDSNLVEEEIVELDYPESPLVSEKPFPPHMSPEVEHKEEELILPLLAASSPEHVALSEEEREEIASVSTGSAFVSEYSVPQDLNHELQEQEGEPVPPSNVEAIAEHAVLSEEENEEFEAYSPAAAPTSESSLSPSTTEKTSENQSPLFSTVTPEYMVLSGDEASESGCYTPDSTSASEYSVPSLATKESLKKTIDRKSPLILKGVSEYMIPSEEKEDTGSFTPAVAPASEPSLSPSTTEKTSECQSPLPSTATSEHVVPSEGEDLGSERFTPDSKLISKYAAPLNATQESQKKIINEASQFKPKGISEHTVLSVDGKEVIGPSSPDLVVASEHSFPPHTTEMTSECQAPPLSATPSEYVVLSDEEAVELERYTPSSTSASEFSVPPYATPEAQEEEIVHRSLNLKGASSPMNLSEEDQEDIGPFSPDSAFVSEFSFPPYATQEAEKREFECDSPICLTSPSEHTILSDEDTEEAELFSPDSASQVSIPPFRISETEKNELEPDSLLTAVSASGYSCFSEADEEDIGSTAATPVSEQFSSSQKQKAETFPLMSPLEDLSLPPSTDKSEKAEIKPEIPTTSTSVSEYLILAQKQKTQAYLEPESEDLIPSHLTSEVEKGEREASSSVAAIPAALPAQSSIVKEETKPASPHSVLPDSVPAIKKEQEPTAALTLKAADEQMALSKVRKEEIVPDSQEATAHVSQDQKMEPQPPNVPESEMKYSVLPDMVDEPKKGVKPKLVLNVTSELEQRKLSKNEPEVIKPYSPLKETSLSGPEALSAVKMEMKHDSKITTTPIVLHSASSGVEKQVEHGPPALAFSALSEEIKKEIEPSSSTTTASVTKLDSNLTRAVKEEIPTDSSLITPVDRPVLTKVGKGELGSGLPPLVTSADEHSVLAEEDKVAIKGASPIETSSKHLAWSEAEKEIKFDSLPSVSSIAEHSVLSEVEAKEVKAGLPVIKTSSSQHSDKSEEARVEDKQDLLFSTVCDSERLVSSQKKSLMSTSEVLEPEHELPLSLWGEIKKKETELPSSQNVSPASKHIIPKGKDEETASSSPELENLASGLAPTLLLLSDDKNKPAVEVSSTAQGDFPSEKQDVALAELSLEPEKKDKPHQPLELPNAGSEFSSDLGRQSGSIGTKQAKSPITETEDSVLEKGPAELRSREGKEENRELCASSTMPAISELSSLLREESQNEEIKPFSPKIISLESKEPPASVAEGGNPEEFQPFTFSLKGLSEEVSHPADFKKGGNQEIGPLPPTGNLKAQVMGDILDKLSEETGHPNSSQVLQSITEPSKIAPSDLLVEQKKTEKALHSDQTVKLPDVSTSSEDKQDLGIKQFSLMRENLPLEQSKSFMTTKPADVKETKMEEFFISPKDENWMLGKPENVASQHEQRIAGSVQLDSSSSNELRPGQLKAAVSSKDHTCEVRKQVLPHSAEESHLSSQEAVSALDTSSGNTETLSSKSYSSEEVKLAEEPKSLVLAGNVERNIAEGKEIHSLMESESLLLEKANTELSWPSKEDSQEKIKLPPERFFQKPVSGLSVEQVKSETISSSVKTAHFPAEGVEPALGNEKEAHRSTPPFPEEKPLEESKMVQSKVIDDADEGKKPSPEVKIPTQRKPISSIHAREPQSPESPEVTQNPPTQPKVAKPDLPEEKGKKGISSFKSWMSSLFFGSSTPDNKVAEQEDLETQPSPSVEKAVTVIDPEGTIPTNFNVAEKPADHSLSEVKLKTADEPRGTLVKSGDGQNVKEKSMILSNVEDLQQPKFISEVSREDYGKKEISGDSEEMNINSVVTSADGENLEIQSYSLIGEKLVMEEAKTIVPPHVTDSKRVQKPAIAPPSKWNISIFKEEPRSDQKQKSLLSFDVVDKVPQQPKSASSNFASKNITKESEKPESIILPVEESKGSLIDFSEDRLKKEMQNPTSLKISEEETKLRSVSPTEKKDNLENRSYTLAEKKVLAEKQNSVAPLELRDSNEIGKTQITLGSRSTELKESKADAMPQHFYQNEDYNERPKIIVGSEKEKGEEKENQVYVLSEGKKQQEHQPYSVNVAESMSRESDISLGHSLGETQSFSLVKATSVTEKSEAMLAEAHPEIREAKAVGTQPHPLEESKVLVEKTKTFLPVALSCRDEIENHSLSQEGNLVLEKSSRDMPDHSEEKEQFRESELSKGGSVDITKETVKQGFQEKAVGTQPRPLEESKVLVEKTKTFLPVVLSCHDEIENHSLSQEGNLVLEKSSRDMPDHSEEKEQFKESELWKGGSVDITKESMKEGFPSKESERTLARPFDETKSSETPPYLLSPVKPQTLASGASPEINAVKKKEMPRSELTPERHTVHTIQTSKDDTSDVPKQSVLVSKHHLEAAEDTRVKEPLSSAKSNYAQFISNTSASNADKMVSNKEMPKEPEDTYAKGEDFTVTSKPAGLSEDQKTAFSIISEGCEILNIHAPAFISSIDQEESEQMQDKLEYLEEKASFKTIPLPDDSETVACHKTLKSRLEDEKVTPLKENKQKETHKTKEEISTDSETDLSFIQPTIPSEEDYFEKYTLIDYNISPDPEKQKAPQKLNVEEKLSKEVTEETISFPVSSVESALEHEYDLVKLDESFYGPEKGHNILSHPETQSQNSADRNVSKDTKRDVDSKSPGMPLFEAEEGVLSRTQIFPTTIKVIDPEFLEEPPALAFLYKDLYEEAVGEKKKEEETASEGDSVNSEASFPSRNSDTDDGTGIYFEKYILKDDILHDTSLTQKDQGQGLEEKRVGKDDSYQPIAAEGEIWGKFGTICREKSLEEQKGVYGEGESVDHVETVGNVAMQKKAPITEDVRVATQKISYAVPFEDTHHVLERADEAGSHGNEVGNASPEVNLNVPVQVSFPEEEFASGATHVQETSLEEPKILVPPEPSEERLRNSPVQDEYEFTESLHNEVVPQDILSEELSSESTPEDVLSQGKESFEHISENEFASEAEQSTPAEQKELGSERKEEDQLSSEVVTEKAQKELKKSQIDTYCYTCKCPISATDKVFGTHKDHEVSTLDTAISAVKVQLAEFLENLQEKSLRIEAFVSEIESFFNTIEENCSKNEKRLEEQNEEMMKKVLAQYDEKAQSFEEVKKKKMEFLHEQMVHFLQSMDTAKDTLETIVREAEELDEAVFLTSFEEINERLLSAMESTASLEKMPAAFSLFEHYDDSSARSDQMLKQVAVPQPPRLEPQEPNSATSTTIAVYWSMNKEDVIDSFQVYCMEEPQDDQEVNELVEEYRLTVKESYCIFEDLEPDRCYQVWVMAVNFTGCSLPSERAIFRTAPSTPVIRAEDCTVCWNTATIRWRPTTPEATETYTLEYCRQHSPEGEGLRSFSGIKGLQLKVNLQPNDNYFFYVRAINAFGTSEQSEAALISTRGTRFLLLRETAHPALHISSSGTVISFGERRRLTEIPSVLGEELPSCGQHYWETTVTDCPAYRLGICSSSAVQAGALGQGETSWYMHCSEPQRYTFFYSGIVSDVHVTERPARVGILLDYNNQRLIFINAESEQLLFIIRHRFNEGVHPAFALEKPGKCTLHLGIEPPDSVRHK
# UniProt P62633: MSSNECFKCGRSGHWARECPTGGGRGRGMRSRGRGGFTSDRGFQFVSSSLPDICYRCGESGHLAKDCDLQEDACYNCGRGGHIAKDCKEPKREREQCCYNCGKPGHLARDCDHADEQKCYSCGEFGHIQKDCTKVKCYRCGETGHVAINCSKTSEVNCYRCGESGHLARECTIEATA
# UniProt Q9Y240: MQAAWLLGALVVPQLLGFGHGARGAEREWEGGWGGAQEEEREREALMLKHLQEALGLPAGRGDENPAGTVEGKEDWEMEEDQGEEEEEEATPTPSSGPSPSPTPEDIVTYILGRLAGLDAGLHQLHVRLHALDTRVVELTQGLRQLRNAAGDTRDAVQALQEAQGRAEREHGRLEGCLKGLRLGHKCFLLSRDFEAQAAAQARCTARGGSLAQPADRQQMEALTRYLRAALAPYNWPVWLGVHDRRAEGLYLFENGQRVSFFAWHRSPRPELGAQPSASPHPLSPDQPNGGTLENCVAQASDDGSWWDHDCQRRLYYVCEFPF
# UniProt Q96MW5: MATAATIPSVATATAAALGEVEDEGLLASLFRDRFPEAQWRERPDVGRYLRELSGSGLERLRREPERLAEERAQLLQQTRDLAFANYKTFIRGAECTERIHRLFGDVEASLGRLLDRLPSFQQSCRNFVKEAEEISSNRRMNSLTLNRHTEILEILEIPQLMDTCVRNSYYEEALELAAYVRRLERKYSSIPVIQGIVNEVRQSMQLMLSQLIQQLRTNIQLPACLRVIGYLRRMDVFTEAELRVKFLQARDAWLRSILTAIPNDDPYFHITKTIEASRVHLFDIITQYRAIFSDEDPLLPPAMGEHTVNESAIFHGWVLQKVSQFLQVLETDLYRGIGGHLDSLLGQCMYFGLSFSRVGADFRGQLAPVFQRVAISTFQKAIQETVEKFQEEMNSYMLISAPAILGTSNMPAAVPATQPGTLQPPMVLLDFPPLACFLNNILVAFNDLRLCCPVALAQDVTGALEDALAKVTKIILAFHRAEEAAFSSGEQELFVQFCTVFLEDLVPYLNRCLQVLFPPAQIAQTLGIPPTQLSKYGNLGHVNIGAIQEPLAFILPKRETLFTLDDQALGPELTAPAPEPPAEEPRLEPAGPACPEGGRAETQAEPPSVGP
# Some of the results follow.
# Legend:
# Assay in all cases: log2 fold change, soluble protein after heating vs DMSO (PISA); higher = thermal stabilisation; K562 cells, 10 uM, 30 min; active = over 0.2 and 3.5 SD of the protein, either way, in both replicates (recomputed)
# [1] = compound: NC(=O)Nc1cc(-c2cccc(F)c2)sc1C(=O)N[C@H]1CCCNC1
# In short: (§1)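 Thermal stability values are relative to control samples and come from duplicates. They are expressed as log2 fold changes. For measurement, K562 cells (2×10^6 cells/mL) received 10 μM compound for 30 min, and aliquots were heated for 3 min over 48°C-58°C, pooled, and extracted at 4°C in PBS with 0.5% NP-40. Soluble protein, the supernatant after 21,000xg for 90 min, was quantified by TMTpro 16plex LC-MS/MS with equalised channel sums.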
# [2] = compound: NC(=O)c1cnc(N[C@@H]2CCCC[C@@H]2N)nc1Nc1cccc(-n2nccn2)c1
# In short: as §1
# [3] = compound: NC1(c2ccc(-c3nc4ccn5c(=O)[nH]nc5c4cc3-c3ccccc3)cc2)CCC1
# In short: as §1
# entinostat = compound: Nc1ccccc1NC(=O)c1ccc(CNC(=O)OCc2cccnc2)cc1 [entinostat]
# In short: as §1
# silmitasertib = compound: O=C(O)c1ccc2c(c1)nc(Nc1cccc(Cl)c1)c1ccncc12 [silmitasertib]
# In short: as §1
# [4] = compound: O=C1NC(=O)C(c2cnc3ccccn23)=C1c1cn2c3c(cc(F)cc13)CN(C(=O)N1CCCCC1)CC2
# In short: as §1
# vorinostat = compound: O=C(CCCCCCC(=O)Nc1ccccc1)NO [vorinostat]
# In short: as §1
# [5] = compound: NCC(=O)Nc1ccc(-n2nc(C(F)(F)F)cc2-c2ccc3c(ccc4ccccc43)c2)cc1
# In short: as §1
# citarinostat = compound: O=C(CCCCCCNC(=O)c1cnc(N(c2ccccc2)c2ccccc2Cl)nc1)NO [citarinostat]
# In short: as §1
# [6] = compound: c1cc(OCCN2CCCCC2)cc(-c2n[nH]c3ccc(-c4nnc[nH]4)cc23)c1
# In short: as §1
# entospletinib = compound: c1cn2cc(-c3ccc4cn[nH]c4c3)nc(Nc3ccc(N4CCOCC4)cc3)c2n1 [entospletinib]
# In short: as §1
Target,log2 fold change [1],log2 fold change [2],log2 fold change [3],log2 fold change (entinostat),log2 fold change (silmitasertib),log2 fold change [4],log2 fold change (vorinostat),log2 fold change [5],log2 fold change (citarinostat),log2 fold change [6],log2 fold change (entospletinib)
CHST2 (UniProt Q9Y4C5),inactive: 0.055,inactive: 0.111,inactive: 0.113,inactive: -0.041,inactive: -0.021,inactive: -0.121,,,,,
CHST10 (UniProt O43529),inactive: 0.059,inactive: 0.023,inactive: -0.142,inactive: 0.048,inactive: -0.059,inactive: -0.032,inactive: 0.015,,,,
CNTRL (UniProt Q7Z7A1),inactive: -0.272,inactive: -0.084,,inactive: -0.121,,,,inactive: 0.033,inactive: 0.11,inactive: -0.002,inactive: 0.051
COL14A1 (UniProt Q05707),inactive: 0.122,,inactive: 0.067,inactive: 0.169,inactive: 0.007,inactive: 0.109,inactive: -0.148,inactive: -0.267,inactive: 0.102,inactive: -0.208,inactive: -0.006
COL1A2 (UniProt P08123),inactive: -0.014,inactive: 0.033,,inactive: -0.038,,inactive: 0.302,inactive: -0.081,inactive: 0.08,inactive: -0.014,inactive: 0.444,inactive: 0.216
CHMP7 (UniProt Q8WUX9),inactive: 0,inactive: -0.031,inactive: -0.107,inactive: 0.035,inactive: 0,inactive: 0.199,inactive: 0.033,,inactive: 0.159,inactive: 0.102,inactive: -0.132
COL1A1 (UniProt P02452),inactive: -0.109,inactive: -0.1,,inactive: -0.163,,inactive: 0.099,,inactive: -0.125,inactive: -0.103,inactive: 0.797,inactive: 0.227
COG2 (UniProt Q14746),inactive: -0.07,inactive: -0.513,inactive: -0.487,inactive: 0.138,inactive: 0.248,inactive: -0.031,,,inactive: 0.101,inactive: 0.34,
CHPT1 (UniProt Q8WUD6),inactive: 0,inactive: -0.039,inactive: -0.059,inactive: 0.062,inactive: -0.042,inactive: -0.049,inactive: 0.066,,inactive: 0.002,inactive: 0.019,
CNNM2 (UniProt Q9H8M5),inactive: 0.063,,inactive: 0.062,inactive: 0.161,inactive: 0.09,inactive: 0.016,inactive: -0.124,inactive: -0.215,inactive: 0.147,inactive: -0.008,inactive: -0.049
CLINT1 (UniProt Q14677),,inactive: 0.001,inactive: 0.037,,inactive: 0.021,inactive: 0.058,,inactive: 0.034,inactive: -0.146,inactive: 0.062,
CLYBL (UniProt Q8N0X4),,,,,,,inactive: -0.041,,,,
CMC4 (UniProt P56277),,inactive: -0.113,,,,,inactive: -0.128,,,,
COG1 (UniProt Q8WTW3),inactive: 0.019,,,inactive: -0.225,,,inactive: 0.059,,,,
COG3 (UniProt Q96JB2),,,inactive: 0.155,,inactive: 0.234,inactive: 0.109,,inactive: -0.042,inactive: -0.105,inactive: -0.17,inactive: 0.043
CHST12 (UniProt Q9NRB3),inactive: 0.095,,,inactive: -0.078,,inactive: -0.003,inactive: 0.068,inactive: -0.1,,,
CLSTN3 isoform 2 (UniProt Q9BQT9),,inactive: -0.077,,,,inactive: 0.117,inactive: -0.112,inactive: 0.341,,,

Target,log2 fold change [1],log2 fold change [2],log2 fold change [3],log2 fold change (entinostat),log2 fold change (silmitasertib),log2 fold change [4],log2 fold change (vorinostat),log2 fold change [5],log2 fold change (citarinostat),log2 fold change [6],log2 fold change (entospletinib)
CLCNKB (UniProt P51801),,inactive: -0.075,,,,inactive: 0.26,inactive: -0.109,inactive: 0.316,,,
CLDN12 (UniProt P56749),inactive: -0.242,,inactive: 0.067,inactive: -0.05,inactive: 0.044,inactive: -0.255,,,,,
CHUK (UniProt O15111),,inactive: -0.276,inactive: 0.07,,inactive: 0.146,inactive: 0.355,inactive: 0.093,inactive: 0.045,,,
CLCN5 isoform 2 (UniProt P51795),,,,,,,inactive: 0.062,inactive: 0.004,inactive: 0.045,inactive: -0.114,
COG7 (UniProt P83436),,inactive: -0.085,inactive: 0.094,,inactive: 0.058,inactive: 0.031,,inactive: 0.106,,,
CHST14 (UniProt Q8NCH0),,inactive: -0.018,inactive: -0.238,,inactive: -0.036,inactive: -0.02,inactive: 0.018,inactive: -0.023,,,
CLN3 (UniProt Q13286),,,inactive: -0.112,,inactive: 0.025,inactive: 0.072,,inactive: -0.124,inactive: 0.042,inactive: -0.033,
COG4 (UniProt Q9H9E3),inactive: 0.3,,,inactive: 0.047,,inactive: 0.34,inactive: 0.138,inactive: -0.133,,,
CIRBP (UniProt Q14011),,inactive: -0.002,inactive: 0.123,,inactive: 0.146,inactive: 0.252,inactive: -0.034,inactive: 0.042,inactive: -0.019,inactive: -0.08,inactive: -0.024
CNRIP1 (UniProt Q96F85),,,inactive: 0.258,,inactive: -0.13,active: 0.738,,,,,
CMYA5 (UniProt Q8N3K9),inactive: -0.217,,inactive: 0.02,inactive: -0.15,inactive: 0.167,,,,,,
CNBP isoform 4 (UniProt P62633),,,inactive: 0.134,,inactive: 0.058,,,,inactive: -0.005,inactive: -0.113,inactive: 0.041
CLEC11A (UniProt Q9Y240),,,,,,,inactive: 0.067,,,,
COG5 isoform 2 (UniProt Q9UP83),,,,,,,,inactive: 0.448,,,
COG8 (UniProt Q96MW5),,,inactive: 0.22,,inactive: -0.16,inactive: 0.335,,,inactive: 0.239,inactive: -0.153,inactive: 0.12
COG6 (UniProt Q9Y2V7),,inactive: -0.014,inactive: 0.099,,inactive: -0.114,,,inactive: -0.09,,,

# As entered above.
# For log2 fold change (vorinostat), CLCNKB (UniProt P51801) has inactive: -0.109
# For log2 fold change [2], COG6 (UniProt Q9Y2V7) has inactive: -0.014
